Changes are numbered by the printed parent chain. Numbers in names are those of the source. Results are given in words; binding and its absence hold for the method and conditions named. Binding seen in cells or lysates may run through a third protein. Some entries that bind do so weakly or less than the wild type. Where a sequence is shown, tags or fusion partners need not be part of it. One block for each binder: values may come before it.
Assays:
[1] = target: T1, Myc-AIPL1 (aryl hydrocarbon receptor interacting protein-like 1), wild type (UniProt Q9NZN9); test: co-IP; SK-N-SH cells co-transfected; lysed in DM buffer (1% n-dodecyl-β-D-maltoside, 10 mM EDTA, protease inhibitors in PBS); 2 µl antibody 2 h at 4°C, Protein G Sepharose overnight at 4°C, 5 washes; western blot; with or without 50 µM MG132 for 4 h
T1 sequence: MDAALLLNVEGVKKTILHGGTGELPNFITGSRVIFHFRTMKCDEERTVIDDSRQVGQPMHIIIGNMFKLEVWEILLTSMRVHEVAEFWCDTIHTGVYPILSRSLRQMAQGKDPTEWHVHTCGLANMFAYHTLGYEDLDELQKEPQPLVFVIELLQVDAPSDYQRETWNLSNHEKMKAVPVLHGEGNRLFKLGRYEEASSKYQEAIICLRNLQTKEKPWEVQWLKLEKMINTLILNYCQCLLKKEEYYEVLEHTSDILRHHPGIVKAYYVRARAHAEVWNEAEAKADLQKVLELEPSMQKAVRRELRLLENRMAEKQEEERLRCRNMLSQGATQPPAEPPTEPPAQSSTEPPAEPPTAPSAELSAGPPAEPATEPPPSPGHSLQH

Amino acid sequences for entries named in this document (tags omitted). A change or cut given only in a name is not applied to a line headed by its entry. Chains listed by the source or under a name are the forms on record and can include a tag or linker.
UniProt O15205: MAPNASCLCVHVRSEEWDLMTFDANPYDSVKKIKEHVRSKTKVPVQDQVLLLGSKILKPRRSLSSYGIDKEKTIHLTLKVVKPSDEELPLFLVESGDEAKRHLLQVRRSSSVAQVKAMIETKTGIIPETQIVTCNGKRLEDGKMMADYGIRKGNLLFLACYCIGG
NUB1-FLAG (NEDD8 ultimate buster-1) (Q9Y5A7, form named): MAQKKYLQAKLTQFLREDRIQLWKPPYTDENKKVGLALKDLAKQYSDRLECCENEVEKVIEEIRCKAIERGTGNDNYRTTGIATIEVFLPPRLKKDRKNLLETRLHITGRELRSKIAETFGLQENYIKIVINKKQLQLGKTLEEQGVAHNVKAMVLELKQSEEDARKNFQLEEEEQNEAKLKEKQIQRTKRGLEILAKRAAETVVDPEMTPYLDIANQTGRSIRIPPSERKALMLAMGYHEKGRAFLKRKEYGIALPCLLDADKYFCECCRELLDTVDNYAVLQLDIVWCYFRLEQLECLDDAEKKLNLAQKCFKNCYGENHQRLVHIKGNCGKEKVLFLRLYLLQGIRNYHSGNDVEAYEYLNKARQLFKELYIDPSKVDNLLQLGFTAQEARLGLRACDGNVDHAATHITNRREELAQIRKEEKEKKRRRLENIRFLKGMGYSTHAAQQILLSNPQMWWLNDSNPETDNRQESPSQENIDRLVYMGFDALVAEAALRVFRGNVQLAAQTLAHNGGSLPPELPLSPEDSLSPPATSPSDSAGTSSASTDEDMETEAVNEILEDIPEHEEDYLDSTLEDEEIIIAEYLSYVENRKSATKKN

[2] = target: T1, Myc-AIPL1 (aryl hydrocarbon receptor interacting protein-like 1), wild type; test: co-IP; as the other co-IPs, but SK-N-SH cells also co-transfected with HA-FAT10 as a third protein; Myc-AIPL1 (wild type or C239R) precipitated
HA-FAT10 = HA-FAT10 (UniProt O15205); test: co-IP; SK-N-SH cells co-transfected; lysed in DM buffer (1% n-dodecyl-β-D-maltoside, 10 mM EDTA, protease inhibitors in PBS); 2 µl antibody 2 h at 4°C, Protein G Sepharose overnight at 4°C, 5 washes; western blot; with or without 50 µM MG132 for 4 h
[3] = target: NUB1-FLAG (NEDD8 ultimate buster-1) (UniProt Q9Y5A7); test: as above

binding [1]: binds
B1: His6-UBA6 (enzyme, UniProt A0AVT1 1-1052)
chain: MEGSEPVAAHQGEEASCSSWGTGSTNKNLPIMSTASVEIDDALYSRQRYVLGDTAMQKMAKSHVFLSGMGGLGLEIAKNLVLAGIKAVTIHDTEKCQAWDLGTNFFLSEDDVVNKRNRAEAVLKHIAELNPYVHVTSSSVPFNETTDLSFLDKYQCVVLTEMKLPLQKKINDFCRSQCPPIKFISADVHGIWSRLFCDFGDEFEVLDTTGEEPKEIFISNITQANPGIVTCLENHPHKLETGQFLTFREINGMTGLNGSIQQITVISPFSFSIGDTTELEPYLHGGIAVQVKTPKTVFFESLERQLKHPKCLIVDFSNPEAPLEIHTAMLALDQFQEKYSRKPNVGCQQDSEELLKLATSISETLEEKPDVNADIVHWLSWTAQGFLSPLAAAVGGVASQEVLKAVTGKFSPLCQWLYLEAADIVESLGKPECEEFLPRGDRYDALRACIGDTLCQKLQNLNIFLVGCGAIGCEMLKNFALLGVGTSKEKGMITVTDPDLIEKSNLNRQFLFRPHHIQKPKSYTAADATLKINSQIKIDAHLNKVCPTTETIYNDEFYTKQDVIITALDNVEARRYVDSRCLANLRPLLDSGTMGTKGHTEVIVPHLTESYNSHRDPPEEEIPFCTLKSFPAAIEHTIQWARDKFESSFSHKPSLFNKFWQTYSSAEEVLQKIQSGHSLEGCFQVIKLLSRRPRNWSQCVELARLKFEKYFNHKALQLLHCFPLDIRLKDGSLFWQSPKRPPSPIKFDLNEPLHLSFLQNAAKLYATVYCIPFAEEDLSADALLNILSEVKIQEFKPSNKVVQTDETARKPDHVPISSEDERNAIFQLEKAILSNEATKSDLQMAVLSFEKDDDHNGHIDFITAASNLRAKMYSIEPADRFKTKRIAGKIIPAIATTTATVSGLVALEMIKVTGGYPFEAYKNCFLNLAIPIVVFTETTEVRKTKIRNGISFTIWDRWTVHGKEDFTLLDFINAVKEKYGIEPTMVVQGVKMLYVPVMPGHAKRLKLTMHKLVKPTTEKKYVDLTVSFAPDIDGDEDLPGPPVRYYFSHDTD
binding [2]: no binding (condition: with FAT10 co-expressed)

binding (HA-FAT10): binds | binding [3]: binds
B2: Myc-AIPL1 (aryl hydrocarbon receptor interacting protein-like 1), wild type (protein, UniProt Q9NZN9 1-384)
chain: T1 sequence

binding (HA-FAT10): binds
B3: Myc-AIPL1 C239R (protein, UniProt Q9NZN9 1-384)
chain: T1 sequence with C239R

From paper PMC3274541
